In doi:10.1101/2019.12.16.876623 (bioRxiv, 2019) one finds binding data, which are given here for three molecules.

Results are given in words; binding and its absence hold for the method and conditions named. For some assays here: In cells and extracts the contact can be indirect. Some entries that bind do so weakly or less than the wild type. Where a sequence is shown, tags or fusion partners need not be part of it.

For test [1], the target named is T1, Pms1-Flag (Pms1 with an internal His6-Flag3 tag) (S. cerevisiae) (UniProt P14242).
T1 sequence: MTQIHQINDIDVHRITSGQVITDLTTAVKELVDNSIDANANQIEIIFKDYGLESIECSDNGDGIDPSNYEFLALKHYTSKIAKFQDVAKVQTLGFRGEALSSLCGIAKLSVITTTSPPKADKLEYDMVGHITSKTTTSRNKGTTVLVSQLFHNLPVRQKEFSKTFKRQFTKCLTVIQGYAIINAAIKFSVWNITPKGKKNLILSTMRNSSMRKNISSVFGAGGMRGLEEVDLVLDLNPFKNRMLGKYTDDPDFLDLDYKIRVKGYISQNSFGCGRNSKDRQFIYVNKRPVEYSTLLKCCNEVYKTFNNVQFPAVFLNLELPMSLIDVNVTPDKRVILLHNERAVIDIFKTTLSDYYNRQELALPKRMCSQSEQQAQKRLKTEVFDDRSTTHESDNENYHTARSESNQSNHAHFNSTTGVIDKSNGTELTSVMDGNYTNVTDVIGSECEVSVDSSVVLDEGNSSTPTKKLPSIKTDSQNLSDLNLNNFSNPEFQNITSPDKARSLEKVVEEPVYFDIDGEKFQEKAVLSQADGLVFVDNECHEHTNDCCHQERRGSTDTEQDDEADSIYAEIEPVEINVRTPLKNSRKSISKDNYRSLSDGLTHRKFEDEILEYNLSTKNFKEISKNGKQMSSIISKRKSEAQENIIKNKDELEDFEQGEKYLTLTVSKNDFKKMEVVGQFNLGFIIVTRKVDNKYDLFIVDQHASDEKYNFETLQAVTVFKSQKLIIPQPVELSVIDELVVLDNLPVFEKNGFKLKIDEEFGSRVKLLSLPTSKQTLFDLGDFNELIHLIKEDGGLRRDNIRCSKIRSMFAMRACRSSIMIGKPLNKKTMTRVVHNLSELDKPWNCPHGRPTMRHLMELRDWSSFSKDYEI
Description: co-IP.

Another test has as its target T2, Msh4-TAP (S. cerevisiae) (UniProt P40965).
T2 sequence: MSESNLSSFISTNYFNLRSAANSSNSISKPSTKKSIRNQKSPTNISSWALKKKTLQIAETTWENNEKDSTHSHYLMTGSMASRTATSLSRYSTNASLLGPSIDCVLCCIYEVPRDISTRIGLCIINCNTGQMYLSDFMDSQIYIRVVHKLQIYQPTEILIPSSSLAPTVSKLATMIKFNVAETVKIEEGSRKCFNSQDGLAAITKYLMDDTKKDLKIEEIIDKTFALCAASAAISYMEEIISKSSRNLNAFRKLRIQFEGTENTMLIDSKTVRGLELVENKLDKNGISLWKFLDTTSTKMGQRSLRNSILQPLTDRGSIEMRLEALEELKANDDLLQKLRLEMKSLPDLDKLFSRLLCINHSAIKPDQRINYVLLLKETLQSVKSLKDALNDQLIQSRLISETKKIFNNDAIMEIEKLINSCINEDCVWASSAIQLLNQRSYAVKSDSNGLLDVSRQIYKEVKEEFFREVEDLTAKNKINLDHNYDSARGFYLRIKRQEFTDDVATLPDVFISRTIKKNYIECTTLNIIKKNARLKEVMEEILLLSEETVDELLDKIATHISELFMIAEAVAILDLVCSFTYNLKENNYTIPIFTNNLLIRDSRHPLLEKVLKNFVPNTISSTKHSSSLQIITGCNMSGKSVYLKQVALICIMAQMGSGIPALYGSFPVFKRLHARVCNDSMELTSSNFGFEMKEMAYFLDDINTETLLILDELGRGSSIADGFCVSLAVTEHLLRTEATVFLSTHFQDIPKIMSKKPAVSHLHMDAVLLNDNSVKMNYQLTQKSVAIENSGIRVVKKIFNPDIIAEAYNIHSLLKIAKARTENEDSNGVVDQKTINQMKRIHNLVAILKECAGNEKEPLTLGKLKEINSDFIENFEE
Description: co-IP.

For a further test, the target named is T3, Cdc5-TAP (S. cerevisiae) (UniProt P32562).
T3 sequence: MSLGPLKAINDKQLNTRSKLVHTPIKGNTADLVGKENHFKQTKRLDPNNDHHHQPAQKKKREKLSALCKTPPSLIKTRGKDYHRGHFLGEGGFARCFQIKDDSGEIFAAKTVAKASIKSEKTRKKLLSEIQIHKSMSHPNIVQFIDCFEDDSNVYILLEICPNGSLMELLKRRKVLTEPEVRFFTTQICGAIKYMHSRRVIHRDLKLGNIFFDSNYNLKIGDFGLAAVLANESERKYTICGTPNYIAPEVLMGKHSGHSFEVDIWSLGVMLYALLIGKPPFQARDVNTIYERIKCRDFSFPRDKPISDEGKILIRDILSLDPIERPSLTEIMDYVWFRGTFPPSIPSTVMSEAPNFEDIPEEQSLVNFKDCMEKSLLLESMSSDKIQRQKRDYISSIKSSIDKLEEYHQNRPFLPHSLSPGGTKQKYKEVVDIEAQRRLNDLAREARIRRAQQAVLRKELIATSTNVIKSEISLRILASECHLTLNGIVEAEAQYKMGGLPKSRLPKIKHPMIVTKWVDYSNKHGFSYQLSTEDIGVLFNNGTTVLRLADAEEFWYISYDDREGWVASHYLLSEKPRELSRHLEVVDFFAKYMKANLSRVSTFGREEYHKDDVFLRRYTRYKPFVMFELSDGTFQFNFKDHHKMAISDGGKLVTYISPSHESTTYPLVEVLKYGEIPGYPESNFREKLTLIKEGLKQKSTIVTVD
As to the kind of experiment: co-IP.

Test [2] addresses T4, GAL4-BD-Exo1 (S. cerevisiae) (UniProt P39875).
T4 sequence: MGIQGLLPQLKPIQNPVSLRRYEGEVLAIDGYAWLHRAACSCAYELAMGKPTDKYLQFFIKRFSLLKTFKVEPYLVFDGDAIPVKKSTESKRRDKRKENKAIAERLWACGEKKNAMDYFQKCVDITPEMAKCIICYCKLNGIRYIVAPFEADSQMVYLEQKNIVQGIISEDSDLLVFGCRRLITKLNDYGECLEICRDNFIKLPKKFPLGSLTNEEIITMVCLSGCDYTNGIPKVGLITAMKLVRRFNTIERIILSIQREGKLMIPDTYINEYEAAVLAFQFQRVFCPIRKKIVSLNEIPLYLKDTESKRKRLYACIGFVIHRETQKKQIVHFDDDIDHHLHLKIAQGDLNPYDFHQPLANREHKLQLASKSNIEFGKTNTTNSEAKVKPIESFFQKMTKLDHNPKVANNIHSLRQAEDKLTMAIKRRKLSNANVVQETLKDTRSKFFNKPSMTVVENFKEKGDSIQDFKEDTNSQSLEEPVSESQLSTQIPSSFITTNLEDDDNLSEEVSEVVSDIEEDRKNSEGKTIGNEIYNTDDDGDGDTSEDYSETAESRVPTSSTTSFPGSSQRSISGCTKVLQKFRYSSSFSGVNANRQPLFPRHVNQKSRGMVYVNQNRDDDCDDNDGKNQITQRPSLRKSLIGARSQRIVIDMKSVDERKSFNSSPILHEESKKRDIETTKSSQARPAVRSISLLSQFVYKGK
Description: two-hybrid.

B1: Mlh3-Myc (Mlh3 with an internal Myc8 or Myc18 tag) (protein, UniProt Q12083 1-715)
chain: MSQHIRKLDSDVSERLKSQACTVSLASAVREIVQNSVDAHATTIDVMIDLPNLSFAVYDDGIGLTRSDLNILATQNYTSKIRKMNDLVTMKTYGYRGDALYSISNVSNLFVCSKKKDYNSAWMRKFPSKSVMLSENTILPIDPFWKICPWSRTKSGTVVIVEDMLYNLPVRRRILKEEPPFKTFNTIKADMLQILVMHPMISLNVQYTDKLRINTEVLFRSKNITEGLTKHQQMSQVLRNVFGAIIPPDMLKKVSLKFNEYQIEGIISKMPVGLKDLQFIYINGRRYADSAFQGYVDSLFQAQDFGEKGMSLLKTKSVGKPYRSHPVFILDVRCPQTIDDLLQDPAKKIVKPSHIRTIEPLIVKTIRSFLTFQGYLTPDKSDSSFEIVNCSQKTATLPDSRIQISKRNQVLNSKMKIARINSYIGKPAVNGCRINNSTINYEKIKNIRIDGQKSRLRNKLSSRPYDSGFTEDYDSIGKTITDFSISRSVLAKYEVINQVDKKFILIRCLDQSNCPLLVLVDQHACDERIRLEELFYSLLTEVVTGTFVARDLKDCCIEVDRTEADLFKHYQSEFKKWGIGYETIEGTMETSLLEIKTLPEMLTSKYNGDKDYLKMVLLQHAHDLKDFKKLPMDLSHFENYTSVDKLYWWKYSSCVPTVFHEILNSKACRSAVMFGDELTRQECIILISKLSRCHNPFECAHGRPSMVPIAELK
Consider B1, for which the binding result in test [1] is given as “binds”; in the test with Msh4-TAP (S. cerevisiae), “binds weakly”; with Cdc5-TAP (S. cerevisiae) it was “binds”.

B2: Mlh1 (two-hybrid fusion) (protein, UniProt P38920 1-769)
chain: MSLRIKALDASVVNKIAAGEIIISPVNALKEMMENSIDANATMIDILVKEGGIKVLQITDNGSGINKADLPILCERFTTSKLQKFEDLSQIQTYGFRGEALASISHVARVTVTTKVKEDRCAWRVSYAEGKMLESPKPVAGKDGTTILVEDLFFNIPSRLRALRSHNDEYSKILDVVGRYAIHSKDIGFSCKKFGDSNYSLSVKPSYTVQDRIRTVFNKSVASNLITFHISKVEDLNLESVDGKVCNLNFISKKSISPIFFINNRLVTCDLLRRALNSVYSNYLPKGNRPFIYLGIVIDPAAVDVNVHPTKREVRFLSQDEIIEKIANQLHAELSAIDTSRTFKASSISTNKPESLIPFNDTIESDRNRKSLRQAQVVENSYTTANSQLRKAKRQENKLVRIDASQAKITSFLSSSQQFNFEGSSTKRQLSEPKVTNVSHSQEAEKLTLNESEQPRDANTINDNDLKDQPKKKQKLGDYKVPSIADDEKNALPISKDGYIRVPKERVNVNLTSIKKLREKVDDSIHRELTDIFANLNYVGVVDEERRLAAIQHDLKLFLIDYGSVCYELFYQIGLTDFANFGKINLQSTNVSDDIVLYNLLSEFDELNDDASKEKIISKIWDMSSMLNEYYSIELVNDGLDNDLKSVKLKSLPLLLKGYIPSLVKLPFFIYRLGKEVDWEDEQECLDGILREIALLYIPDMVPKVDTSDASLSEDEKAQFINRKEHISSLLEHVLFPCIKRRFLAPRHILKDVVEIANLPDLYKVFERC
Regarding B2, in test [2], the binding result is on record as “binds”.

B3: Exo1-Myc (protein, UniProt P39875 1-702)
chain: T4 sequence
Regarding B3, in the test with Cdc5-TAP (S. cerevisiae), the binding entry is on record as “binds”.
